doi:10.1101/724518
These are yes or no findings as the source states them, for the method shown. Binding seen in cells or lysates may run through a third protein. Some results given as binding are weak or reduced against the parent protein; the word gives no strength. Where a sequence is shown, tags or fusion partners need not be part of it. Values belong to the binder of their own block, whether it stands above or below them.

How the values were obtained:
[1] = target: T1, RpoTp fused to the N-terminal portion (YN) of the Venus protein (Arabidopsis thaliana) (UniProt O24600); experiment: split reporter
T1 sequence: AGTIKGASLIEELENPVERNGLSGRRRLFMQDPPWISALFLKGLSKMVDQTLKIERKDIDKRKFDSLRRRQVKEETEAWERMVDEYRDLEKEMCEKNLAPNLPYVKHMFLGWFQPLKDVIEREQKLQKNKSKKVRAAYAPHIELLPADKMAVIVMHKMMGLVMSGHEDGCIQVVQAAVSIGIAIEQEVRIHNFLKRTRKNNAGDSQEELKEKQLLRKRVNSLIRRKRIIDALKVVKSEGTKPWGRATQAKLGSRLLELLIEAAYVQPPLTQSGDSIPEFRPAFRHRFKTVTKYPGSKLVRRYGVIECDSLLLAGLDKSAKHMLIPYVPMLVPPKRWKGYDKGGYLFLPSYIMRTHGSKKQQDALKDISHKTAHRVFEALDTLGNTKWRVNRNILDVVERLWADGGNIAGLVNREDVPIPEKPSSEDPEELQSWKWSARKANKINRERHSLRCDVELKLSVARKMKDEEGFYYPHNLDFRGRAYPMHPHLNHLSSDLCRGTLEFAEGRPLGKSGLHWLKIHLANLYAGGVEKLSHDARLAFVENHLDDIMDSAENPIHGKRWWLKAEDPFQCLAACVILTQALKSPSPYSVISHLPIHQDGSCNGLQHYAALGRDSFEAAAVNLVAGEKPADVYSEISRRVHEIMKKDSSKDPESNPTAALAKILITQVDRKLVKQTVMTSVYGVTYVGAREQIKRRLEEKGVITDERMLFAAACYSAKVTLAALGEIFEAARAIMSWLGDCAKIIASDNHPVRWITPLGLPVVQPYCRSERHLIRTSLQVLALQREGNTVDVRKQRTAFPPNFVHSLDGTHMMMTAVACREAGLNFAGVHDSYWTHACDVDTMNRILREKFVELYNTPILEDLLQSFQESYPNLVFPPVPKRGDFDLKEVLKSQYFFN

[2] = target: T2, GUN1-GFP (35S::GUN1-GFP, expressed in Arabidopsis cotyledons) (Arabidopsis thaliana) (UniProt Q9SIC9); experiment: co-IP
T2 sequence: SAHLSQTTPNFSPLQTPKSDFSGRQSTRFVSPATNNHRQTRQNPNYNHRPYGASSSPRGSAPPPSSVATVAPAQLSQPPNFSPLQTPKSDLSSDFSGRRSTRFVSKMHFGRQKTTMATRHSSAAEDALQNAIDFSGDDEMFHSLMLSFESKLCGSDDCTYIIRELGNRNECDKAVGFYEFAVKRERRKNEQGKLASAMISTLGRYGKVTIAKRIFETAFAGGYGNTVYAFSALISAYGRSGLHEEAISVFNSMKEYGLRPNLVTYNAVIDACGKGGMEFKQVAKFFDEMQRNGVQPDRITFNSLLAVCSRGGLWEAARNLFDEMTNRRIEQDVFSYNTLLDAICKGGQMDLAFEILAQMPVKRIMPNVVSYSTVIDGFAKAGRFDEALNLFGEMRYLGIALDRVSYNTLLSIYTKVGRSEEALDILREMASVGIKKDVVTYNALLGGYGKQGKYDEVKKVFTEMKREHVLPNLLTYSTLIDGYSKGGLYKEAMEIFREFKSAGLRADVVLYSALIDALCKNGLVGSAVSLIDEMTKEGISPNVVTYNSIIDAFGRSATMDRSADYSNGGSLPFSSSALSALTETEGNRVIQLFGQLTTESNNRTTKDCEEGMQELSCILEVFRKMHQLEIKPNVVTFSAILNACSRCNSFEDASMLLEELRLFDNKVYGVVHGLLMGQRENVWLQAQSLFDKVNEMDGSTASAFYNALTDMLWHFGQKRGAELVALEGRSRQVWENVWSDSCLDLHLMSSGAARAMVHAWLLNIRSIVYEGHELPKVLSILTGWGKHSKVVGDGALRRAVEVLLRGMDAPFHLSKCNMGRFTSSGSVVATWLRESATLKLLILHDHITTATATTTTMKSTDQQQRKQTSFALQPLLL

[3] = target: T3, GUN1 fused to the N-terminal portion (YN) of the Venus protein (Arabidopsis thaliana) (UniProt Q9SIC9); experiment: split reporter
T3 sequence: T2 sequence

[4] = target: T4, GUN1-GFP protein chimera (transiently expressed in tobacco leaves) (Arabidopsis thaliana) (UniProt Q9SIC9); experiment: co-IP
T4 sequence: T2 sequence

[5] = target: T5, GUN1 fused to the C-terminal portion (YC) of the Venus protein (Arabidopsis thaliana) (UniProt Q9SIC9); experiment: split reporter
T5 sequence: T2 sequence

binding [1]: no binding
B1: CRP1 fused to the C-terminal portion (YC) of the Venus protein (protein, UniProt Q8L844 55-709)
chain: SSYFSSWNGLDTNEEEDNEFSSEVHRRYDFSPLLKFLSRFGPVELALDSESESEASPESLNPVEFDLVESYRAVPAPYWHSLIKSLTSSTSSLGLAYAVVSWLQKHNLCFSYELLYSILIHALGRSEKLYEAFLLSQKQTLTPLTYNALIGACARNNDIEKALNLIAKMRQDGYQSDFVNYSLVIQSLTRSNKIDSVMLLRLYKEIERDKLELDVQLVNDIIMGFAKSGDPSKALQLLGMAQATGLSAKTATLVSIISALADSGRTLEAEALFEELRQSGIKPRTRAYNALLKGYVKTGPLKDAESMVSEMEKRGVSPDEHTYSLLIDAYVNAGRWESARIVLKEMEAGDVQPNSFVFSRLLAGFRDRGEWQKTFQVLKEMKSIGVKPDRQFYNVVIDTFGKFNCLDHAMTTFDRMLSEGIEPDRVTWNTLIDCHCKHGRHIVAEEMFEAMERRGCLPCATTYNIMINSYGDQERWDDMKRLLGKMKSQGILPNVVTHTTLVDVYGKSGRFNDAIECLEEMKSVGLKPSSTMYNALINAYAQRGLSEQAVNAFRVMTSDGLKPSLLALNSLINAFGEDRRDAEAFAVLQYMKENGVKPDVVTYTTLMKALIRVDKFQKVPVVYEEMIMSGCKPDRKARSMLRSALRYMKQTLRAS

binding [2]: binds
B2: RpoTp, nuclear-encoded plastid RNA polymerase (NEP), endogenous (enzyme, UniProt O24600 96-993)
chain: T1 sequence

binding [3]: binds
B3: RpoTp fused to the C-terminal portion (YC) of the Venus protein (enzyme, UniProt O24600 96-993)
chain: T1 sequence

binding [4]: binds
B4: RpoTp-RFP protein chimera (transiently expressed in tobacco leaves) (enzyme, UniProt O24600 96-993)
chain: T1 sequence

binding [5]: binds
B5: RpoTp fused to the N-terminal portion (YN) of the Venus protein (enzyme, UniProt O24600 96-993)
chain: T1 sequence
